In patent publication US10821151B2, “Compositions and methods for treating cancer and persistent viral infections” (SUSAVION BIOSCIENCES, INC., priority 2015, dated 2020):
Part of at least one peptide drawing is inferred or uncertain, most often the ends. Positions of bridges follow the written chain, without caps; N, C: chain ends. Chains are numbered I, II in the order given. No end group written: not given here.

The chains behind the UniProt entries cited, without tags or fusion partners. Where a name states a change or a piece, a line headed by the entry shows the natural chain unless it says otherwise.
UniProt Q6UXN8: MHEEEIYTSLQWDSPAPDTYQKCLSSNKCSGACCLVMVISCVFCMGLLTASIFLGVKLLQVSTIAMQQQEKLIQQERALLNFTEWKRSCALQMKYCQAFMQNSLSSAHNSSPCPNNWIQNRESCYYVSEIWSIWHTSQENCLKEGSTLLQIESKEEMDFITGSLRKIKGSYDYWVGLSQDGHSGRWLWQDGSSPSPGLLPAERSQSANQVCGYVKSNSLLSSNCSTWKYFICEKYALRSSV

Assays:
CLEC10a = molecular target: T1, CLEC10a (Homo sapiens, UniProt Q8IUN9); test: solid-phase binding assay
T1 sequence (Q8IUN9 1-316): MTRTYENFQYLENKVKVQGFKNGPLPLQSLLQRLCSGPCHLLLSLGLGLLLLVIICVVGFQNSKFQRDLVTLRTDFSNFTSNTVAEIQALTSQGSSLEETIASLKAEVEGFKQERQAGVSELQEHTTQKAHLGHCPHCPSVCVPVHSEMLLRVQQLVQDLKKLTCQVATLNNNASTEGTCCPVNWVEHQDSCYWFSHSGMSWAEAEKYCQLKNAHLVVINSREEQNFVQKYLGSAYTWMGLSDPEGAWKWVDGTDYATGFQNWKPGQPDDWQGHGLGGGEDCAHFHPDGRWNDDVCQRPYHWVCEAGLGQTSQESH

siglecs = test: solid-phase binding assay, biotinylated peptide, streptavidin-peroxidase; conditions: recombinant chimeric siglecs in protein A/G-coated wells
DC-SIGN = molecular target: T2, DC-SIGN (Homo sapiens, UniProt Q9NNX6); test: solid-phase binding assay
T2 sequence (Q9NNX6 1-404): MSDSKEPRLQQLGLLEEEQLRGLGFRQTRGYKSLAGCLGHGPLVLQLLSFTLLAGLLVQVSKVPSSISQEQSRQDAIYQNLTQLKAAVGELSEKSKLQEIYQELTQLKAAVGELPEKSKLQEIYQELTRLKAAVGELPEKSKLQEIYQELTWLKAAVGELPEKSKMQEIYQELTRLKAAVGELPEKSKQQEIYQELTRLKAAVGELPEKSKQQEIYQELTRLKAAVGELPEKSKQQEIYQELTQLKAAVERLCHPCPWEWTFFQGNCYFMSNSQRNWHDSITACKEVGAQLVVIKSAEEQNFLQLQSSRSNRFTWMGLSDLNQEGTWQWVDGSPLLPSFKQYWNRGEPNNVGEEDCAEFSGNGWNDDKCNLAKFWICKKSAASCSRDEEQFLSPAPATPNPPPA

[1] = system: immune cells in the peritoneal cavity; test: peritoneal immune cell populations by flow cytometry after subcutaneous injection; conditions: 1 nanomole per gram subcutaneously on day 0, 2 and 4
CLEC9a = CLEC9a (Homo sapiens, UniProt Q6UXN8); test: solid-phase binding assay
human PBMCs = test: Human Phospho-Immunoreceptor Array on PBMC lysates; type: cell-based; conditions: 100 nM, 5 min

I: NPSHPLSGGGGSKK-NH2 / II: NPSHPLSGGGGSK / III: NPSHPLSGGGGS / IV: NPSHPLSGGGGS (amide I:13-IV:C, I:14-II:C, II:13-III:C) [SVH1C, [NPSHPLSGGGGS]4K3-NH2]
binding to CLEC10a (CLEC10a): not
binding to siglecs (siglecs): bound strongly
binding to DC-SIGN (DC-SIGN): not
increase in number of immune cells compared to prior to the treatment [1]: at least 1.5 fold
memory B cells (CD73, CD80 and CD273) [1]: increased significantly
binding to CLEC9a (CLEC9a): not
phosphorylated form of BLAME (human PBMCs): increased
phosphorylated forms of CD229, FcγRIIA, LAIR-1, Siglec-2, -3, -5, -7, -9, and -10 (human PBMCs): decreased
phosphorylated forms of FcRH4, SHP-1 and NKp46 (human PBMCs): did not change significantly
